For one compound, donepezil pharmacokinetic steady-state, Tmax and half-life results are on record in patent US20240165097A1, “PHARMACEUTICAL COMPOSITION FOR THE TREATMENT OF ALZHEIMER'S DISEASE OR DEMENTIA” (Heptares Therapeutics Limited, priority 2021, published 2024).

One may read the Tmax as the time at which the peak concentration occurs.

For data set [1] the following is noted: 5 mg x5 days then 10 mg once daily.
The conditions of data set [2]: in humans; cited from earlier work.

With `COc1cc2c(cc1OC)C(=O)C(CC1CCN(Cc3ccccc3)CC1)C2` (stereo not drawn) [Donepezil, 2-[(1-benzylpiperidin-4-yl)methyl]-5,6-dimethoxy-2,3-dihydro-1 H-inden-1-one, reference compound], in data set [1], the donepezil pharmacokinetic steady-state entry is given as “at pharmacokinetic steady-state by the time of the 18th donepezil dose”. In data set [2], the Tmax is 3 to 4 h and the half-life entry was “approximately 70 hours”.
